Experimental data as given in patent US11571411B2, “Use of a bisamide derivative of malonic acid for treating allergic and other diseases in humans and animals” (PHARMENTERPRISES ALLERGY LLC, priority 2018, dated 2023).
The source gives many values for each of these; only a part stands here.

Legend:
[1] = system: histamine-induced nasal congestion model; assay: Histamine-induced nasal congestion model in dogs, nasal administration of 1% solution; format: in vivo, Beagle dogs
Description: A histamine-induced nasal congestion model in dogs was performed according to the standard procedure [Tiniakov R. L., Tiniakova O. P., McLeod R. L., Hey J. A., Yeates D. B. Canine model of nasal congestion and allergic rhinitis//J Appl Physiol. 2003. V.94(5). P.1821-1828]. Beagle dogs were injected to the nasal cavity with a 5% histamine solution in a volume of 250 μl/nostril. The volume of the nasal cavity of the right and left nostrils was measured using a rhinometer before and 5, 10, 15, 20, 30, 40, 50 and 60 minutes after administration of histamine. Five experiments were carried out in which Compound I was administered intranasally once in the form of a 1% solution in a volume of 50 μl at different time periods: 1) 5 minutes after the administration of histamine; 2) right before administration of histamine; 3) 3 hours before administration of histamine; 4) […] administration of histamine; and 5) 8 hours before administration of histamine.

[2] = system: histamine-induced nasal congestion model; assay: Histamine-induced nasal congestion model in dogs, oral administration; format: in vivo, Beagle dogs; conditions: oral for 14 days
Description: A histamine-induced nasal congestion model in dogs was performed according to the standard procedure [Tiniakov R. L., Tiniakova O. P., McLeod R. L., Hey J. A., Yeates D. B. Canine model of nasal congestion and allergic rhinitis//J Appl Physiol. 2003. V.94(5). P.1821-1828]. Beagle dogs were injected in the nasal cavity with a 5% histamine solution in a volume of 250 μl/nostril. The volume of the nasal cavity of the right and left nostrils was measured using a rhinometer before and 5, 10, 15, 20, 30, 40, 50 and 60 minutes after administration of histamine. Three experiments were performed, in which Compound I was administered orally once at different times: 1) 30 minutes before administration of histamine; 2) 1 hour before administration of histamine; and 3) 6 hours before administration of histamine, and one experiment was performed, in which Compound I was administered orally once daily for 14 days, the last administration was carried out 1 hour before administration of histamine.

[3] = 1% solution intranasally 8 hours before histamine administration, 5 minutes after histamine
[4] = 1% solution intranasally 8 hours before histamine administration, 10 minutes after histamine
[5] = 1% solution intranasally 8 hours before histamine administration, 15 minutes after histamine
[6] = 1% solution intranasally 8 hours before histamine administration, 20 minutes after histamine
[7] = 1% solution intranasally 8 hours before histamine administration, 30 minutes after histamine
[8] = 1% solution intranasally 8 hours before histamine administration, 40 minutes after histamine
[9] = 1% solution intranasally 8 hours before histamine administration, 50 minutes after histamine
[10] = 1% solution intranasally 8 hours before histamine administration, 60 minutes after histamine
[11] = 1% solution intranasally 8 hours before histamine administration, before histamine administration
[12] = 1% solution intranasally right before histamine administration, 5 minutes after histamine
[13] = 1% solution intranasally right before histamine administration, 10 minutes after histamine
[14] = 1% solution intranasally right before histamine administration, 15 minutes after histamine
[15] = 1% solution intranasally right before histamine administration, 20 minutes after histamine
[16] = 1% solution intranasally right before histamine administration, 30 minutes after histamine
[17] = 1% solution intranasally right before histamine administration, 40 minutes after histamine
[18] = 1% solution intranasally right before histamine administration, 50 minutes after histamine
[19] = 1% solution intranasally right before histamine administration, 60 minutes after histamine
[20] = 1% solution intranasally right before histamine administration, before histamine administration
[21] = 0.13 mg/kg, 50 minutes after histamine
[22] = 0.13 mg/kg, 60 minutes after histamine
[23] = 0.27 mg/kg, 50 minutes after histamine
[24] = 0.27 mg/kg, 60 minutes after histamine
[25] = 0.54 mg/kg, 30 minutes after histamine
[26] = 0.54 mg/kg, 40 minutes after histamine
[27] = 0.54 mg/kg, 50 minutes after histamine
[28] = 0.54 mg/kg, 60 minutes after histamine

O=C(CC(=O)NCCc1cnc[nH]1)NCCc1cnc[nH]1 [Compound I, N,N′-bis(2-(1H-imidazol-5-yl)ethyl)malonamide]
Volume of the nasal cavity, right nostril ([1]; 1% solution intranasally 6 hours before histamine administration, before histamine administration): 4.1 ± 0.2 cm^3
Volume of the nasal cavity, left nostril [1, 3]: 3.0 ± 0.2$ cm^3
Volume of the nasal cavity, right nostril [1, 3]: 2.8 ± 0.2$ cm^3
Volume of the nasal cavity, left nostril [1, 4]: 2.9 ± 0.1&$ cm^3
Volume of the nasal cavity, right nostril [1, 4]: 2.8 ± 0.2&$ cm^3
Volume of the nasal cavity, left nostril [1, 5]: 2.0 ± 0.1&$ cm^3
Volume of the nasal cavity, right nostril [1, 5]: 1.9 ± 0.2&$ cm^3
Volume of the nasal cavity, left nostril [1, 6]: 1.7 ± 0.1&$ cm^3
Volume of the nasal cavity, right nostril [1, 6]: 1.8 ± 0.2&$ cm^3
Volume of the nasal cavity, left nostril [1, 7]: 2.7 ± 0.2&$ cm^3
Volume of the nasal cavity, right nostril [1, 7]: 2.5 ± 0.2&$ cm^3
Volume of the nasal cavity, left nostril [1, 8]: 3.6 ± 0.2$ cm^3
Volume of the nasal cavity, right nostril [1, 8]: 3.5 ± 0.2$ cm^3
Volume of the nasal cavity, left nostril [1, 9]: 3.7 ± 0.1 cm^3
Volume of the nasal cavity, right nostril [1, 9]: 3.7 ± 0.2 cm^3
Volume of the nasal cavity, left nostril [1, 10]: 4.1 ± 0.2 cm^3
Volume of the nasal cavity, right nostril [1, 10]: 4 ± 0.2$ cm^3
Volume of the nasal cavity, left nostril [1, 11]: 4.5 ± 0.1 cm^3
Volume of the nasal cavity, right nostril [1, 11]: 4.1 ± 0.1 cm^3
Volume of the nasal cavity, left nostril [1, 12]: 3.2 ± 0.1& cm^3
Volume of the nasal cavity, right nostril [1, 12]: 3.4 ± 0.1& cm^3
Volume of the nasal cavity, left nostril [1, 13]: 2.8 ± 0.1&$ cm^3
Volume of the nasal cavity, right nostril [1, 13]: 2.7 ± 0.1&$ cm^3
Volume of the nasal cavity, left nostril [1, 14]: 3.2 ± 0.3& cm^3
Volume of the nasal cavity, right nostril [1, 14]: 3.4 ± 0.3& cm^3
Volume of the nasal cavity, left nostril [1, 15]: 3.4 ± 0.2& cm^3
Volume of the nasal cavity, right nostril [1, 15]: 3.3 ± 0.1& cm^3
Volume of the nasal cavity, left nostril [1, 16]: 3.1 ± 0.2& cm^3
Volume of the nasal cavity, right nostril [1, 16]: 3.2 ± 0.0& cm^3
Volume of the nasal cavity, left nostril [1, 17]: 4.1 ± 0.3 cm^3
Volume of the nasal cavity, right nostril [1, 17]: 4.0 ± 0.1& cm^3
Volume of the nasal cavity, left nostril [1, 18]: 3.4 ± 0.4 cm^3
Volume of the nasal cavity, right nostril [1, 18]: 3.4 ± 0.1 cm^3
Volume of the nasal cavity, left nostril [1, 19]: 3.2 ± 0.2 cm^3
Volume of the nasal cavity, right nostril [1, 19]: 3.6 ± 0.3 cm^3
Volume of the nasal cavity, left nostril [1, 20]: 3.6 ± 0.2 cm^3
Volume of the nasal cavity, right nostril [1, 20]: 3.9 ± 0.5 cm^3
Volume of the nasal cavity, left nostril [2, 21]: 3.7 ± 0.2$ cm^3
Volume of the nasal cavity, right nostril [2, 21]: 3.7 ± 0.2$ cm^3
Volume of the nasal cavity, left nostril [2, 22]: 3.8 ± 0.1$ cm^3
Volume of the nasal cavity, right nostril [2, 22]: 3.8 ± 0.1$ cm^3
Volume of the nasal cavity, left nostril [2, 23]: 3.7 ± 0.1$ cm^3
Volume of the nasal cavity, right nostril [2, 23]: 3.7 ± 0.1$ cm^3
Volume of the nasal cavity, left nostril [2, 24]: 3.8 ± 0.1$ cm^3
Volume of the nasal cavity, right nostril [2, 24]: 3.8 ± 0.1$ cm^3
Volume of the nasal cavity, left nostril [2, 25]: 3.5 ± 0.1*$ cm^3
Volume of the nasal cavity, right nostril [2, 25]: 3.5 ± 0.2*$ cm^3
Volume of the nasal cavity, left nostril [2, 26]: 3.7 ± 0.1*$ cm^3
Volume of the nasal cavity, right nostril [2, 26]: 3.7 ± 0.2*$ cm^3
Volume of the nasal cavity, left nostril [2, 27]: 3.7 ± 0.1$ cm^3
Volume of the nasal cavity, right nostril [2, 27]: 3.7 ± 0.2$ cm^3
Volume of the nasal cavity, left nostril [2, 28]: 3.8 ± 0.1$ cm^3
Volume of the nasal cavity, right nostril [2, 28]: 3.8 ± 0.1$ cm^3
